Reference: patent US20130022590
Positions count from the first letter of the chain named. For part of these data: Weaker means in comparison with the reference protein, sequence or condition of that experiment. For part of these data: Where a protein sequence is shown, tags need not be part of it. For part of these data: Construct, isoform or probe ends are uncertain for at least one entry.

Sequences of proteins named here, by UniProt entry; tags and fusion partners are left off. Residues count along the entry.
UniProt O95218, 65-95 W79A: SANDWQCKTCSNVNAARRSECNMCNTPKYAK
UniProt O95218, 65-95 R81A: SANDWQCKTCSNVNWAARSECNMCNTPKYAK
UniProt O95218, 65-95 R82A: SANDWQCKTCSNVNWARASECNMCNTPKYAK
UniProt O95218, 65-95 R82N: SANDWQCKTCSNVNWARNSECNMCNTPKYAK
UniProt P46099, 275-357: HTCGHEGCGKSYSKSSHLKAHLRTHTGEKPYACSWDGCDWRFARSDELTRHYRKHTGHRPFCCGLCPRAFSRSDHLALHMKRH

Assays:
[1] = biological target: T1, ZRANB2-F12 (Homo sapiens) (UniProt O95218); assay: FP; conditions: small reproducible reduction versus double site; value in figure only; purified recombinant protein; protein details: GST removed for FA, gel shift and SPR; label: 5'-fluorescein; variant of double site AGGUAAAGGUAA
T1 sequence (looked up): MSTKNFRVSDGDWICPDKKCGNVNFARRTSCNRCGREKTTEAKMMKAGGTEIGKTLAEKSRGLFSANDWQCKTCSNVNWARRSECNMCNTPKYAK

[2] = biological target: T1, ZRANB2-F12 (Homo sapiens); assay: competition with a labelled probe; conditions: weaker competitor than exon 3 in SPR competition; purified recombinant protein; protein details: GST removed for FA, gel shift and SPR
ZRANB2-F2 (Homo sapiens) = biological target: T2, ZRANB2-F2 (Homo sapiens) (UniProt O95218); assay: FP; conditions: purified recombinant protein; protein details: GST fusion (FA); label: 5'-fluorescein; variant of 17-nt AGGUAA ssRNA
T2 sequence (looked up): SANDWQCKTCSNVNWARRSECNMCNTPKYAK

[3] = biological target: T3, ZRANB2-F2 W79A (Homo sapiens) (UniProt O95218); assay: FP; conditions: significantly reduced Ka; purified recombinant protein; label: 5'-fluorescein (FA) or 32P (gel shift)
T3 sequence (looked up): T2 sequence (looked up) with W15A

[4] = biological target: T4, ZRANB2-F2 R81A (Homo sapiens) (UniProt O95218); assay: FP; conditions: significantly reduced Ka; purified recombinant protein; label: 5'-fluorescein (FA) or 32P (gel shift)
T4 sequence (looked up): T2 sequence (looked up) with R17A

[5] = biological target: T5, ZRANB2-F2 N86A (Homo sapiens) (UniProt O95218); assay: FP; conditions: significantly reduced Ka; purified recombinant protein; label: 5'-fluorescein (FA) or 32P (gel shift)
T5 sequence (looked up): T2 sequence (looked up) with N22A

[6] = biological target: T6, ZRANB2-F2 M87A (Homo sapiens) (UniProt O95218); assay: FP; conditions: significantly reduced Ka; purified recombinant protein; label: 5'-fluorescein (FA) or 32P (gel shift)
T6 sequence (looked up): T2 sequence (looked up) with M23A

[7] = biological target: T7, ZRANB2-F2 R82A (Homo sapiens) (UniProt O95218); assay: FP; conditions: significantly reduced Ka; purified recombinant protein; label: 5'-fluorescein (FA) or 32P (gel shift)
T7 sequence (looked up): T2 sequence (looked up) with R18A

[8] = biological target: T8, ZRANB2-F2 R82N (Homo sapiens) (UniProt O95218); assay: FP; conditions: purified recombinant protein; label: 5'-fluorescein (FA) or 32P (gel shift)
T8 sequence (looked up): T2 sequence (looked up) with R18N

EKLF-F123 = EKLF-F123 (UniProt P46099); assay: FP; conditions: weaker than polyU; purified recombinant protein; protein details: zinc fingers 1-3
[9] = biological target: T9, ZRANB2-F122 (F1-F2-F2) (Homo sapiens) (UniProt O95218); assay: FP; conditions: higher affinity than F12 delta45-64; purified recombinant protein; label: 5'-fluorescein
T9 sequence (looked up, limits assumed): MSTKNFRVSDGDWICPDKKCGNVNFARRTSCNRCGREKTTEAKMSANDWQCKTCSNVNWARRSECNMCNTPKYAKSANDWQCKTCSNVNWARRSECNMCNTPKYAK

Sequence: AGAAUGAGGUAA [one-site scrambled double site]
- binding result [1]: binds more weakly

Sequence: GCGAGCGGUACGUAGA [Tra2-beta exon 1 5' splice site competitor]
- binding result [2]: binds more weakly

Sequence: AGUUAA [AGUUAA (3U)]
- binding result (ZRANB2-F2 (Homo sapiens)): binds more weakly

Sequence: GCAACCAGGUAAAGUCU [17-nt AGGUAA ssRNA]
- binding result [3]: binds more weakly
- binding result [4]: binds more weakly
- binding result [5]: binds more weakly
- binding result [6]: binds more weakly
- binding result [7]: binds more weakly
- binding result [8]: binds more weakly

Sequence: AGGUAA [AGGUAA hexamer]
- binding result (EKLF-F123): binds more weakly

Sequence: AGGAAUAAGUGAAGCUG [Tra2-beta exon 2 5' splice site competitor]
- binding result [2]: binds more weakly

Sequence: AAAGGUGGUAAAA [GGUGGU 13-mer]
- binding result [9]: binds
